Six molecules from article PMC6364870 can be followed below.

Chains of the proteins cited; added tags and fusions are not shown.
UniProt O54962: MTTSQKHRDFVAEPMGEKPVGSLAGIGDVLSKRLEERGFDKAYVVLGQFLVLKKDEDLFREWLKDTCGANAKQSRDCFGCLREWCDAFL
UniProt Q6DVA0: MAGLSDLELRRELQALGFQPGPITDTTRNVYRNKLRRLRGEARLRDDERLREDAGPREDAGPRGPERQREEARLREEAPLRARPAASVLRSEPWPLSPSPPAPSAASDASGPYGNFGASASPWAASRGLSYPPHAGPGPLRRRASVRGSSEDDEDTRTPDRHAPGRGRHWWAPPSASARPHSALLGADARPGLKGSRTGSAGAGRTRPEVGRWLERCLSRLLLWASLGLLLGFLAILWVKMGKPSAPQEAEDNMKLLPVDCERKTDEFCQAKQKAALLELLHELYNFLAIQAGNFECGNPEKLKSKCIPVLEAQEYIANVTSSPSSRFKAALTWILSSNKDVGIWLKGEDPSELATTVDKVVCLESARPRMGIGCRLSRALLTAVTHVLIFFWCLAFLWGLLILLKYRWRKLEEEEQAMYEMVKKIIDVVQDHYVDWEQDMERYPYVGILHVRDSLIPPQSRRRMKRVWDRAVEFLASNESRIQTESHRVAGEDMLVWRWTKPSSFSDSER
UniProt O09106: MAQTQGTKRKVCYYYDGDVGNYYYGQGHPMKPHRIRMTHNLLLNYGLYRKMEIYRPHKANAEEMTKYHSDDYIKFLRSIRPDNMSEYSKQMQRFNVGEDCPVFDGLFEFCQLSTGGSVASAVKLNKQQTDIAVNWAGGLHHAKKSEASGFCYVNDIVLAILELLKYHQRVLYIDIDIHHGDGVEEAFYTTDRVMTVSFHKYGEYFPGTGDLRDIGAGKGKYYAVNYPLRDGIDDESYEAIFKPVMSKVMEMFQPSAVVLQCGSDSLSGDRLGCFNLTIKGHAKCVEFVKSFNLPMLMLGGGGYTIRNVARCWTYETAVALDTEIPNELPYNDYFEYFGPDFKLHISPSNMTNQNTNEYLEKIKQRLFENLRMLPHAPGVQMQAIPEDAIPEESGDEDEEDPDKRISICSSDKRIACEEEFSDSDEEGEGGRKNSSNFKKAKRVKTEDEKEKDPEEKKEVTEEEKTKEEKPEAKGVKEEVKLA

These are yes or no findings as the source states them, for the method shown. In cells and extracts the contact can be indirect. A yes stands for co-enrichment or nearness to the bait. Other partners may have been found.

Experiment [1] concerns the target T1, SATB2 (mouse (endogenous in cortex)) (UniProt Q8VI24).
T1 sequence: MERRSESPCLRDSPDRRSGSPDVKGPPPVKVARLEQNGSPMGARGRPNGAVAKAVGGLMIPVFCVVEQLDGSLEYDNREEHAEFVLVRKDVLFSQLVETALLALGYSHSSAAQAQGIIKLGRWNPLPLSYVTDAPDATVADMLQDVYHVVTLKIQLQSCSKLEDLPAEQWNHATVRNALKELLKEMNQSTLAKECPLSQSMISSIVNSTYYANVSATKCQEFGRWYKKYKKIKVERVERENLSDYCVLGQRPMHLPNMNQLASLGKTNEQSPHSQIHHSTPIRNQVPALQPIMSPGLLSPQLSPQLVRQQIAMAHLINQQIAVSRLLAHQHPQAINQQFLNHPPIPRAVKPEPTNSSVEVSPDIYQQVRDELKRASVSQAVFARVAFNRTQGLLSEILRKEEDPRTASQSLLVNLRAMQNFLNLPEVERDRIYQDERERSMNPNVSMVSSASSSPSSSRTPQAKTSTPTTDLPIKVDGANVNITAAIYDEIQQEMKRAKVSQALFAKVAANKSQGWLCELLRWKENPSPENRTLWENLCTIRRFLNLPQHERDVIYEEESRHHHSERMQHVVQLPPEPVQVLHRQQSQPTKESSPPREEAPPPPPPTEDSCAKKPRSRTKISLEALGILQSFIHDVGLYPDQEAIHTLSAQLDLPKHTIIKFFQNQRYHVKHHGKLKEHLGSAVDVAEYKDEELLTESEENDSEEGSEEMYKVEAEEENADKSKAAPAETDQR
Description: affinity purification with mass spectrometry; endogenous SATB2 precipitated with anti-SATB2 on protein G Dynabeads from neonatal mouse cortical lysate (1 mg total protein, overnight 4°C; 25 mM Tris/HCl pH 7.4, 150 mM NaCl, 1% NP-40, 1 mM EDTA, 5% glycerol); Satb2 knock-out lysate as negative …; LC-MS.

For experiment [2], the target named is T1, SATB2 (mouse (endogenous in cortex)). The experiment can be described thus: affinity purification with mass spectrometry; endogenous SATB2 precipitated with anti-SATB2 on protein G Dynabeads from adult (three month-old) mouse cortical lysate (1 mg total protein, overnight 4°C; 25 mM Tris/HCl pH 7.4, 150 mM NaCl, 1% NP-40, 1 mM EDTA, 5% glycerol); Satb2 knock-out lysate as negative control; LC-MS.

Experiment [3] has the same target. The experiment can be described thus: affinity purification with mass spectrometry; endogenous SATB2 precipitated with anti-SATB2 on protein G Dynabeads from neonatal mouse cortical lysate (1 mg total protein, overnight 4°C; 25 mM Tris/HCl pH 7.4, 150 mM NaCl, 1% NP-40, 1 mM EDTA, 5% glycerol); Satb2 knock-out lysate as negative …; LC-MS. This is another data set of the same source.

For the molecule “BAF (barrier-to-autointegration factor) (from UniProt O54962 1-89)”, the binding entry in experiment [1] is recorded as “binds”.
Still for that read-out and setting: the same measure for LAP2 (mouse (endogenous in cortex)): “binds”; for LEMD2 (from UniProt Q6DVA0 1-511): “binds”.
Regarding “histone deacetylase 1 (HDAC1) (from UniProt O09106 1-482)”, the binding entry in experiment [1] and in experiment [2] was “binds” throughout.

B1: FBL (protein, UniProt P35550 1-327)
chain: MKPGFSPRGGGFGGRGGFGDRGGRGGGRGGRGGFGGGRGGFGGGGRGRGGGGGGFRGRGGGGGRGGGFQSGGNRGRGGGRGGKRGNQSGKNVMVEPHRHEGVFICRGKEDALVTKNLVPGESVYGEKRVSISEGDDKIEYRAWNPFRSKLAAAILGGVDQIHIKPGAKVLYLGAASGTTVSHVSDIVGPDGLVYAVEFSHRSGRDLINLAKKRTNIIPVIEDARHPHKYRMLIAMVDVIFADVAQPDQTRIVALNAHTFLRNGGHFVISIKANCIDSTASAEAVFASEVKKMQQENMKPQEQLTLEPYERDHAVVVGVYRPPPKVKN
Take B1: the binding entry in experiment [3] is reported as “binds”.

B2: LEMD3 (protein, UniProt Q9WU40 1-921)
chain: MAAATAAAAPQQLSDEELFSQLRRYGLSPGPVTESTRPVYLKKLKKLREEEQQQQQQQQQQQHRAGGRGNKTRNSNNNNTATAMGGRPGSGDLAYLRSPAGLGRLSASAAESPVAGGSGGAAAVPAAGSKVLLGFSSDESDVEASPREQAGGGGGGGARRDRAALQYRGLRAPPAPPAAGEVTGGHPGERRKPHSWWGARRPAGPEPQPPAAGSDGAAEDADEELADGEDRDPEAEEPLWASRAVNGSRLLPYSSCREHYSDSEEEEEEGEEDGDVAPARQVLKDDSLARHRPRRSHSKPFSALTAKSGGSRQETSVQGGGALAMNDRAAAAGSLDRSRNLEEAAAEPGGGGGGGCGCDPVDSIPRYRAGAKKLAPLLSPPSPDGDSTLESPTGPLLKTNNHIGGGAFGVDSPGLYANSLPPGATAAAAPGTLRINHANHTGSNHTYLKTAYGKPKLCEPEEELLQQFKREEVSPTGSFSAHYLSMFLLTAACLFFLILGLTYLGMRGTGVPEDGGLIKNPFDETFGKIQESEKNLLMSTLYKLHDRLAQIAGDHECGSSSQRMLSVQEAAAYLKNLGPEYEDVFNTSLLWIFKNGKDVGIRCVGYGPEEDLTNITDVQFLQSTRPQMPFWCRFRRAFITVTHRLLLLCLGVVLVCVALRYMRYRWTKEEEETRQMYDMVVKIIDVLRSHNEACQETKDLQPYMPLPHVRDSLIQPQDRKKMKKVWDRAVDFLAANESRVRTETRRVGGADFLVWRWIQPSASCDKTLVIPSKVWQGQAFHLDRRNSPPNSLTPCLKIRNMFDPVMEIGDHWHLAIQEAILEKCSDNDGIVHIAVDRNSREGCVYVKCLSPEYAGKAFKALHGSWFDGKLVTVKYLRLDRYHHRFPQALTCNTPLKPANKHMNSLSHLRLRTGLANSQGSS
As to B2, the binding entry in experiment [3] is reported as “binds”.
